Test [1] concerns the target T1, TNKS2 ARC4 (UniProt Q9H2K2).
T1 sequence (looked up): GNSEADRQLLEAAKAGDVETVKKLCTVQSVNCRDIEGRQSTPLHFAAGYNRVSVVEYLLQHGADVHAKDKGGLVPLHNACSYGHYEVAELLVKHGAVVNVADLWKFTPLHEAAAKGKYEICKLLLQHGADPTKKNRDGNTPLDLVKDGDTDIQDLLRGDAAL
Put plainly: ITC.

Test [2] has as its target T1, TNKS2 ARC4. As to the kind of experiment: ITC; TNKS2 ARC4 titrated into the TBP-CTPR.

Results are given in words; binding and its absence hold for the method and conditions named. Some entries that bind do so weakly or less than the wild type.

B1: 2TBP-CTPR4 (designed binder)
chain: MGSAEAWYNLGNAYYKQGDYQKAIEYYQKALELDPNNREAGDGEEDPRSAEAWYNLGNAYYKQGDYQKAIEYYQKALELDPRSAEAWYNLGNAYYKQGDYQKAIEYYQKALELDPNNREAGDGEEDPRSAEAWYNLGNAYYKQGDYQKAIEYYQKALELDPRS
Turning to B1, the binding entry in the test with TNKS2 ARC4 [1] and in the test with TNKS2 ARC4 [2] was “binds” each time.

B2: 3TBP-CTPR6 (designed binder)
chain: MGSAEAWYNLGNAYYKQGDYQKAIEYYQKALELDPNNREAGDGEEDPRSAEAWYNLGNAYYKQGDYQKAIEYYQKALELDPRSAEAWYNLGNAYYKQGDYQKAIEYYQKALELDPNNREAGDGEEDPRSAEAWYNLGNAYYKQGDYQKAIEYYQKALELDPRSAEAWYNLGNAYYKQGDYQKAIEYYQKALELDPNNREAGDGEEDPRSAEAWYNLGNAYYKQGDYQKAIEYYQKALELDPRS
On to B2, for which the binding result in the test with TNKS2 ARC4 [1] and with TNKS2 ARC4 [2] was “binds” in each case.

B3: 1TBP-CTPR2 (designed binder)
chain: MGSAEAWYNLGNAYYKQGDYQKAIEYYQKALELDPNNREAGDGEEDPRSAEAWYNLGNAYYKQGDYQKAIEYYQKALELDPRS
As for B3, the binding entry in the test with TNKS2 ARC4 [1] and with TNKS2 ARC4 [2] was “binds” each time.

Source of the values: patent US11525133.
